Experimental data reported in paper PMC12548414.
The campaign covered roughly 1,600 compounds. About 20 (1%) showed an effect of 50% or more. Some of the results follow.

What follows are compounds tested on T1, E. coli pLC1021 (luc-trpAt trans-translation reporter). Conditions: reporter signal, KKL-35 = 100%; rise means trans-translation inhibition; 2 h, 20 µM.
T1 construct: pLC1021 luc-trpAt reporter strain
Design: species or system Escherichia coli pLC1021; luc-trpAt non-stop luciferase reporter; luminescence rises when trans-translation is inhibited; normalized to KKL-35 and DMSO
In short: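 Cells carrying the non-stop luc-trpAt reporter were exposed to 20 µM compound for 2 h at room temperature, then Bright-Glo was added and luminescence read at 560 nm after 10 min. Signals were normalised per plate to DMSO and 20 µM KKL-35 wells. Hits: activity one SD above the median; ≥2 biological repeats averaged.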

SMILES | % activation [%]
COc1ccc(Nc2ncccc2N)cc1 [KKL-1693] | 4
COc1cccc(NC(=O)c2c(NC(=O)c3cccnc3)sc3c2CCC3)c1 [KKL-0594] | 0
O=C(CSc1ccccc1)Nc1ccc(-c2nc3ccccc3c(=O)o2)cc1 [KKL-0595] | 1
CCN1CCN(c2cc(C(C)(C)C)nc3c(-c4ccccc4)c(C)nn23)CC1 [KKL-1010] | 3
O=C(Nc1nnc(C2CC2)s1)c1ccccn1 [KKL-0945] | 0
O=C(Oc1ccccc1)c1ccc(S(=O)(=O)N2CCCCC2)cc1 [KKL-0581] | 2
COc1cccc(-c2ccccc2NC(=O)C2CCN(Cc3cccc(SC)c3)CC2)c1 [KKL-1175] | 0
O=[N+]([O-])c1ccc(NC(S)=NCc2ccc(Cl)c(Cl)c2)cc1 [KKL-1540] | 0
COC(=O)COc1ccc(NC(=O)c2ccccc2C)cc1 [KKL-1564] | 0
CCC(NC(=O)c1cnc(SC)nc1)c1ccc(F)cc1 (centres unmarked) [KKL-0704] | 0
CCOC(=O)c1cnc(-n2nc(C)cc2C)nc1Nc1ccc(N(C)C)cc1 [KKL-0889] | 0
Cc1cc2ncn(CCOc3ccc(Cl)cc3)c2cc1C [KKL-0400] | 2
CCCCc1ccc(NC(=S)NC(=O)c2ccc(OCC)c(Cl)c2)cc1 [KKL-0311] | 0
Cc1ccc(C(O)CN2CCC3(CC2)CC(O)c2cc(Cl)ccc2O3)cc1C (centres unmarked) [KKL-0681] | 0
NS(=O)(=O)c1ccc(CCNc2ncnc3c2c(-c2ccccc2)cn3-c2ccc(F)cc2)cc1 [KKL-1049] | 1
C=CCNc1nc(SC)nc2ccccc12 [KKL-1744] | 5
CCCCCCCCn1c2c(c(=N)c3ccccc31)CCC2 [KKL-1637] | 1
CCC(OC(C)=O)c1ccc(OC(C)=O)c(OC)c1 (centres unmarked) [KKL-0758] | 7
N#Cc1ccc(NC(=O)CSc2ccc(Cl)cc2)cc1 [KKL-1571] | 0
CC(C)Oc1cccc(C(=O)C2CCCN(C3CSCCSC3)C2)c1 (centres unmarked) [KKL-0676] | 0
Cc1ccc(CNCc2c(C(=O)N3CCCCCCC3)nc3ccc(Cl)cn23)o1 [KKL-0521] | 2
c1ccc(-c2ncc(-c3ccc(OCCCn4ccnc4)cc3)s2)cc1 [KKL-1776] | 0

SMILES | % activation [%]
COc1ccc2c(c1)NC1(COC3(CCN(Cc4cccc(F)c4)CC3)C1)c1cccn1-2 (centres unmarked) [KKL-1223] | 0
Cc1cc(C)cc(CC(C)Cc2nc3ccccc3[nH]2)c1 (centres unmarked) [KKL-0535] | 1
Cc1ccc(Nc2c(-c3ccccn3)nc3ccc(C)cn23)cc1 [KKL-1199] | 4
CCCCCOc1ccc(C(=O)NCC(=O)NCC(=O)OCC)cc1 [KKL-0985] | 7
OC1(c2ccccc2)Oc2ccccc2N=C1c1ccccc1 (centres unmarked) [KKL-1870] | 2
CN1CCN(c2ccc(C(F)(F)F)cc2NC(=O)c2ccccn2)CC1 [KKL-1836] | 7
CCCCC(=O)NC(=S)Nc1ccc(N2CCN(C(=O)c3ccco3)CC2)c(Cl)c1 [KKL-0965] | 8
CC1(C)Cc2c(cnn2-c2cccc(F)c2)C(NC(=O)c2ccc3c(c2)no[n+]3[O-])C1 (centres unmarked) [KKL-0636] | 5
Cc1nn(Cc2ccccc2)c(Cl)c1C(=O)NC1CCCCCC1 [KKL-1834] | 1
N#Cc1ccc2c(c1)CCN(CCCSc1ccnc3cc(C(F)(F)F)ccc13)CC2 [KKL-1819] | 0
Cc1ccc(CN(CCCn2ccnc2)Cc2ccc(N3CCCC3)c(F)c2)o1 [KKL-1039] | 0
Cc1ccc(NC(=O)c2ccc([N+](=O)[O-])o2)cc1C [KKL-1616] | 4
CCOC(=O)CCc1c(C)c(C#N)c2nc3ccccc3n2c1Cl [KKL-1216] | 0
Cc1c(C(=O)NCC(c2ccc3c(c2)OCO3)N(C)C)oc2c(C)cccc12 (centres unmarked) [KKL-1031] | 0
COC(=O)COc1ccc(-c2ccc(F)cc2)cc1C=O [KKL-1608] | 0
COCC1CCCN(c2nncc(-c3ccc(C4CCCCC4)cc3)n2)C1 (centres unmarked) [KKL-1119] | 0
CCN(CC)S(=O)(=O)c1ccc(Cl)c(C(=O)Oc2cccc3cccnc23)c1 [KKL-1481] | 4
C#CCSc1nnc(-c2ccc([N+](=O)[O-])cc2)o1 [KKL-0433] | 8
CSc1ccc(C(=O)Nc2nc(-c3ccccn3)cs2)cc1 [KKL-1745] | 5
COc1ccc(-c2ncc(CN3CCCC(C(=O)c4ccc(Cl)cc4)C3)cn2)cc1 (centres unmarked) [KKL-1163] | 0
Cc1cc(C)c(C2C3=C(O)c4ccccc4C3=Nc3c2c(C)nn3-c2ccccn2)c(C)c1 (centres unmarked) [KKL-0840] | 0
COC(=O)[C@@H]1Cc2c([nH]c3ccccc23)[C@H]2C[C@H](NCCNC(C)=O)C[C@@H](c3ccc(OC(F)(F)F)cc3)N21 [KKL-0306] | 20

SMILES | % activation [%]
COc1ccc(-c2ncc(CN3CCCC(C(=O)c4ccccc4SC)C3)cn2)cc1 (centres unmarked) [KKL-0316] | 0
CCN1/C(=C/c2sc3ccccc3[n+]2C)C=Cc2cccc(C)c21 [KKL-1643] | 0
Cc1ccc(-n2c(=O)oc3ccc(Cl)cc3c2=O)cc1Cl [KKL-0729] | 0
Cn1cc(C(=O)CCl)c2ccccc21 [KKL-1621] | 1
CCC(=O)Oc1cccc2ccc(/C=C/c3ccccc3F)nc12 [KKL-1463] | 14
O=C1c2cccc3cccc(c23)C(=O)N1CCN1CCN(CC(O)COc2ccccc2Cl)CC1 (centres unmarked) [KKL-0725] | 6
O=C(Oc1ccc(Cl)cc1)c1ccc(COC(=O)c2cnccn2)cc1 [KKL-1070] | 3
COc1cccc(-c2nn(-c3ccccc3)cc2CNCc2ccc(-n3cncn3)cc2)c1 [KKL-0653] | 2
CCOC(=O)CSCC(=O)Nc1c(C(=O)C2CC2)oc2ccccc12 [KKL-1061] | 5
COc1ccc2[nH]c(CN3CCC4(CC3)NC(=O)c3ccccc3O4)c(C)c2c1 [KKL-0473] | 9
COc1ccc2cc(C(=O)C3CCCN(Cc4ccc(C#CC(C)(C)O)cc4)C3)ccc2c1 (centres unmarked) [KKL-1121] | 10
COc1ccc(C(=O)NC(=S)Nc2ccc(N3CCCCC3)cc2)cc1OC [KKL-1472] | 0
CC1Cc2cc(CNCc3cn(C)c4cc(F)ccc34)ccc2O1 (centres unmarked) [KKL-1034] | 0
c1ccc(-c2nc(NC3CCCCC3)cc(C3CC3)n2)nc1 [KKL-1677] | 11
O=C(COc1cccc(F)c1)Nc1nc(-c2ccccn2)cs1 [KKL-1787] | 5
CCC(C)NC(=O)c1ccc(NC(=O)C2(c3ccccc3)CCCC2)cc1 (centres unmarked) [KKL-0427] | 0
COc1ccc(F)c(-c2nc(CN3CCC4(C=Cc5ccccc54)CC3)c(C)o2)c1 [KKL-0476] | 6
CSc1nccc(N2CCCC(CCC(=O)NCc3ccc(F)c(F)c3)C2)n1 (centres unmarked) [KKL-0346] | 0
Cc1ccc2c(c1)cc(C(=O)N1CCCC(c3cc4[nH]cccc-4n3)C1)n2C (centres unmarked) [KKL-0533] | 0
COC(=O)[C@@H]1Cc2c([nH]c3ccccc23)[C@H]2C[C@H](NCCNC(C)=O)C[C@@H](c3ccc(C(C)C)cc3)N21 [KKL-1606] | 0
Cc1nc2ccccc2n1N=Cc1ccc([N+](=O)[O-])s1 [KKL-1026] | 0
CCOC(=O)COc1ccc(S(=O)(=O)Nc2ccc(C)c(C)c2)cc1 [KKL-1407] | 0

SMILES | % activation [%]
CN1Cc2c(N3CCOCC3)nc3sc(C(=O)c4ccc(Br)cc4)c(N)c3c2CC1(C)C [KKL-0984] | 0
CSc1ccc(C(CC(=O)c2ccccc2)Nc2ccc(F)cc2)cc1 (centres unmarked) [KKL-1455] | 3
Cc1cc(NC(=O)c2ccc([N+](=O)[O-])o2)c(C)cc1I [KKL-1342] | 0
Cc1ccc(-n2cc(CNCCCn3ccnc3)c(-c3cccc(C)c3)n2)cc1 [KKL-0662] | 0
COc1cc([N+](=O)[O-])ccc1N=C(S)Nc1ccc(F)c(Cl)c1 [KKL-1536] | 0
Cc1ccc2[nH]c(/C(C#N)=C\c3c[nH]c4ccc(Br)cc34)nc2c1 [KKL-0579] | 0
COc1ccc(CCNc2cc(C)nc3c(-c4ccccc4)c(C)nn23)cc1OC [KKL-0871] | 0
Cc1nc2ccccn2c1C(=O)NCc1cccs1 [KKL-1801] | 0
COc1cccc(N2CCN(CC(=O)Nc3cc(Cl)ccc3Cl)CC2)c1 [KKL-1245] | 0
Cc1ccc(/C=C/C(=O)C2C(=O)c3ccccc3C2=O)cc1 [KKL-0982] | 0
Cc1nn2c(O)cc(C(C)(C)C)nc2c1-c1ccccc1 [KKL-0891] | 17
CCOc1ccc2c(c1)cc(C(=O)N1CCCC(c3cc4[nH]cccc-4n3)C1)n2C (centres unmarked) [KKL-1219] | 0
CC1CCc2sc3ncnc(NCCc4ccccc4)c3c2C1 (centres unmarked) [KKL-0868] | 2
O=C(NCCc1ccc(F)cc1)NC12CC3CC(CC(C3)C1)C2 [KKL-1075] | 0
CC(NC(=O)C1(c2ccc(Cl)cc2)CCC1)c1n[nH]c(-c2cccnc2)n1 (centres unmarked) [KKL-1243] | 8
COC(=O)COc1ccc(-c2ccccc2)cc1 [KKL-1283] | 4
CCOC(=O)COc1ccc(C(=O)Nc2ccc(F)cc2)cc1 [KKL-0783] | 0
Brc1c(-c2ccc3c(c2)OCO3)nc2ncccn12 [KKL-1672] | 2
CC(C)(C)c1ccc(-c2nnc(SCC(=O)OC3CCCCC3)o2)cc1 [KKL-1671] | 0
CN(Cc1ccc(Cl)cc1)C(=O)CCc1nc2ccccc2oc1=O [KKL-1749] | 0

3 of the compounds above, as comma-separated lines:
SMILES,% activation [%]
OC1(c2ccccc2)Oc2ccccc2N=C1c1ccccc1 (centres unmarked) [KKL-1870],2
CN1CCN(c2ccc(C(F)(F)F)cc2NC(=O)c2ccccn2)CC1 [KKL-1836],7
CCCCC(=O)NC(=S)Nc1ccc(N2CCN(C(=O)c3ccco3)CC2)c(Cl)c1 [KKL-0965],8
